Assay results reported in US20220010020A1 (Five Prime, published 2022).
These are yes or no findings as the source states them, for the method shown. A result given as binding can be weak or reduced; the word gives no strength.

B1: anti-FGFR2-IIIb antibody (afucosylated, humanized IgG1 monoclonal antibody), control sample incubated without hydrogen peroxide (antibody, V domains shown)
VH: QVQLVQSGAEVKKPGSSVKVSCKASGYIFTTYNVHWVRQAPGQGLEWIGSIYPDNGDTSYNQNFKGRATITADKSTSTAYMELSSLRSEDTAVYYCARGDFAYWGQGTLVTVSS
VL: DIQMTQSPSSLSASVGDRVTITCKASQGVSNDVAWYQQKPGKAPKLLIYSASYRYTGVPSRFSGSGSGTDFTFTISSLQPEDIATYYCQQHSTTPYTFGQGTKLEIKR
notes: also called αFGFR2b; Sample 1
B2: anti-FGFR2-IIIb antibody incubated with 1.0% hydrogen peroxide overnight at room temperature (force oxidized) (antibody, human IgG1, kappa, V domains shown)
VH: B1 VH
VL: B1 VL
notes: Same antibody as m1 after peroxide treatment; also called +1.0% H2O2; 1.0% H2O2
B3: anti-FGFR2-IIIb antibody incubated with 0.1% hydrogen peroxide overnight at room temperature (force oxidized) (antibody, human IgG1, kappa, V domains shown)
VH: B1 VH
VL: B1 VL
notes: Same antibody as m1 after peroxide treatment; also called +0.1% H2O2; 0.1% H2O2
B4: anti-FGFR2-IIIb antibody incubated with 0.01% hydrogen peroxide overnight at room temperature (force oxidized) (antibody, human IgG1, kappa, V domains shown)
VH: B1 VH
VL: B1 VL
notes: Same antibody as m1 after peroxide treatment; also called +0.01% H2O2; 0.01% H2O2

Molecular target: FGFR2-IIIb (fibroblast growth factor receptor 2 IIIb splice form) (human)
Assay: Biacore

| binding | Binder |
| --- | --- |
| binds | B1 |
| binds | B2 |
| binds | B3 |
| binds | B4 |

Molecular target: FGFR2-IIIb (fibroblast growth factor receptor 2 IIIb splice form) (human)
Assay: Biacore and blocking ELISA

| binding | Binder |
| --- | --- |
| binds | B2 |
| binds | B3 |
| binds | B4 |
